Test [1] has as its target receptor-interacting protein kinase 3 (human (endogenous in HK-2)) (UniProt Q9Y572). The test can be described thus: co-IP; lysates of control HK-2 cells (no LPS); immunoprecipitation with anti-RIP3 or anti-Nrf2 antibody on Dynabeads Protein G, 4 °C overnight; immunoblot for Nrf2 and RIP3. Background: A western blot detects proteins with antibodies after separation by electrophoresis.

Chains of the proteins cited; added tags and fusions are not shown.
UniProt Q9Y572: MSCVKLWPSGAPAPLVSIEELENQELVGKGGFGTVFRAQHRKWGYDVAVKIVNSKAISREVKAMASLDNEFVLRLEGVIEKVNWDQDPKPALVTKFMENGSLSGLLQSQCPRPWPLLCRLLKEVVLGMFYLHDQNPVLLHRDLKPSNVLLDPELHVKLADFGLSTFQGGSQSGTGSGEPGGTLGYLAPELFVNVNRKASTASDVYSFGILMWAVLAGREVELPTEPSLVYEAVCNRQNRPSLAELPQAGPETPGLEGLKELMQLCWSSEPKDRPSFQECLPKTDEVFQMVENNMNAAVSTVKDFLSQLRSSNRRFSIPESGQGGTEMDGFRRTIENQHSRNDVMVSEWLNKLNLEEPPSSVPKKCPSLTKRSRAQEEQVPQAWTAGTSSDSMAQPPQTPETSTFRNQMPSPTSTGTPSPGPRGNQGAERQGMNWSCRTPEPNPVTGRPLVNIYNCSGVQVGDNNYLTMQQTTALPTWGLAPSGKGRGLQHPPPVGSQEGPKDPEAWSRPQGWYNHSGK

Test [2] shares this target. The test can be described thus: co-IP; lysates of HK-2 cells treated with LPS for 24 h (Pierce IP Lysis Buffer); immunoprecipitation with anti-RIP3 or anti-Nrf2 antibody or control IgG at 4 °C overnight on Dynabeads Protein G; immunoblot for Nrf2 and RIP3.

These are yes or no findings as the source states them, for the method shown. In cells and extracts the contact can be indirect. Some results given as binding are weak or reduced against the parent protein; the word gives no strength.

B1: nuclear factor erythroid 2-related factor 2 (protein, UniProt Q16236 1-605)
chain: MMDLELPPPGLPSQQDMDLIDILWRQDIDLGVSREVFDFSQRRKEYELEKQKKLEKERQEQLQKEQEKAFFAQLQLDEETGEFLPIQPAQHIQSETSGSANYSQVAHIPKSDALYFDDCMQLLAQTFPFVDDNEVSSATFQSLVPDIPGHIESPVFIATNQAQSPETSVAQVAPVDLDGMQQDIEQVWEELLSIPELQCLNIENDKLVETTMVPSPEAKLTEVDNYHFYSSIPSMEKEVGNCSPHFLNAFEDSFSSILSTEDPNQLTVNSLNSDATVNTDFGDEFYSAFIAEPSISNSMPSPATLSHSLSELLNGPIDVSDLSLCKAFNQNHPESTAEFNDSDSGISLNTSPSVASPEHSVESSSYGDTLLGLSDSEVEELDSAPGSVKQNGPKTPVHSSGDMVQPLSPSQGQSTHVHDAQCENTPEKELPVSPGHRKTPFTKDKHSSRLEAHLTRDELRAKALHIPFPVEKIINLPVVDFNEMMSKEQFNEAQLALIRDIRRRGKNKVAAQNCRKRKLENIVELEQDLDHLKDEKEKLLKEKGENDKSLHLLKKQLSTLYLEVFSMLRDEDGKPYSPSEYSLQQTRDGNVFLVPKSKKPDVKKN
As for B1, the binding entry in test [1] is reported as “no binding (condition: control HK-2 cells without LPS)”; in test [2] it was “binds”.

The record behind these values is PMC12683725.
